No constants are given. Whether binding was seen depends on the method and setting. Some entries that bind do so weakly or less than the wild type. Where a sequence is shown, tags or fusion partners need not be part of it.
Molecular target: T1, USP (ultraspiracle), endogenous in aff3 cells (Bombyx mori (endogenous in aff3)) (UniProt P49700)
T1 sequence: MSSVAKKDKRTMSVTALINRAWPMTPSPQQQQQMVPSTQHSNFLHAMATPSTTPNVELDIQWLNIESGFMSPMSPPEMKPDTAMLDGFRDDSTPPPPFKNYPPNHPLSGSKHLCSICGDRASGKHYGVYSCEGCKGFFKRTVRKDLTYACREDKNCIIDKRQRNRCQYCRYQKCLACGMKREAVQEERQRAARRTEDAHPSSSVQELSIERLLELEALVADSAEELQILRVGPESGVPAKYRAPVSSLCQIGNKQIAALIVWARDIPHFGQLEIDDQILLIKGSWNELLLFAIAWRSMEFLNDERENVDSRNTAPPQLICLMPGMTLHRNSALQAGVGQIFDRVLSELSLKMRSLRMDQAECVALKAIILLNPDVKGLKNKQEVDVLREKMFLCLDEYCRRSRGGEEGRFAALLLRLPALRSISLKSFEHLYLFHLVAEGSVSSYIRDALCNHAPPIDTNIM
Assay: native gel or EMSA; super shift assay: whole-cell extracts of aff3 cells overexpressing V5-tagged EcR-A or EcR-B1 incubated with 32P probes (BmEcRB1-E1, BmE75A-EcRE, BHR3B-EcRE) 20 min on ice, then anti-V5 and anti-USP antibodies together 1.5 h on ice; 4% polyacrylamide gel; both proteins found in one protein-DNA complex (super-shift2)

binding: binds
B1: BmEcR-B1 tagged with a V5 antigen (B1^T) (receptor, UniProt P49881 1-606)
chain: MRVENVDNVSFALNGRADEWCMSVETRLDSLVREKSEVKAYVGGCPSVITDAGAYDALFDMRRRWSNNGGFPLRMLEESSSEVTSSSALGLPPAMVMSPESLASPEYRALELWSYDDGITYNTAQSLLGACNMQQQQLQPQQPHPAPPTLPTMPLPMPPTTPKSENESMSSGREELSPASSINGCSADADARRQKKGPAPRQQEELCLVCGDRASGYHYNALTCEGCKGFFRRSVTKNAVYICKFGHACEMDMYMRRKCQECRLKKCLAVGMRPECVIQEPSKNKDRQRQKKDKGILLPVSTTTVEDHMPPIMQCDPPPPEAARIHEVVPRYLSEKLMEQNRQKNIPPLSANQKSLIARLVWYQEGYEQPSDEDLKRVTQTWQSDEEDEESDLPFRQITEMTILTVQLIVEFAKGLPGFSKISQSDQITLLKASSSEVMMLRVARRYDAASDSVLFANNKAYTRDNYRQGGMAYVIEDLLHFCRCMFAMGMDNVHFALLTAIVIFSDRPGLEQPSLVEEIQRYYLNTLRIYIINQNSASSRCAVIYGRILSVLTELRTLGTQNSNMCISLKLKNRKLPPFLEEIWDVAEVATTHPTVLPPTNPVVL
